The source of these data is publication PMC6739421.

These are yes or no findings as the source states them, for the method shown. Binding can be weak; no strength is given.

For this experiment, the target named is T1, phage λ terminase small subunit (TerS, gpNu1), wild type (phage λ) (UniProt P03707).
T1 sequence: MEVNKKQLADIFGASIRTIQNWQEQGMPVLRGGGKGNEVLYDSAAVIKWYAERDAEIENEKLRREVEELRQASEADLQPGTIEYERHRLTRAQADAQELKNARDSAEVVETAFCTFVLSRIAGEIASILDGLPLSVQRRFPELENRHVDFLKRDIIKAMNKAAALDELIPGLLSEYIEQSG
Briefly: two-hybrid; bacterial adenylate cyclase two-hybrid (BACTH) in E. coli BTH101 with plasmids pKT25 and pUT18C; colour on X-gal/IPTG plates at 30°C and β-galactosidase in Miller units after overnight induction with 0.5 mM IPTG.
Consider “Rpp protein from Pluralibacter gergoviae”, for which the binding entry was “binds”. Turning to “RppA (redirecting phage packaging protein A, c1503-encoded protein of the PICI EcCICFT073) (Escherichia coli CFT073)”, the binding result is on record as “binds”. The entry for RppA L51D (Escherichia coli CFT073) is “no binding”.
